Where a name gives a salt, the structure may show the parent alone. The whole screen tested about 5,300 compounds, of which about 130 (2.5%) showed an effect of 50% or more. Some of the results follow.
test system: M. mycetomatis strain mm55; conditions: primary screen, metabolic activity vs growth control; 96 h, 2 µM; inhibitor

Row | SMILES | % viability [%]
1 | CCC(Oc1ccc(Cl)cc1)C(=O)OC1CC2CCC(C1)N2C (stereo not shown) [ONC0000115, sm21] | 119.3
2 | O=c1c(O[C@@H]2O[C@H](CO)[C@H](O)[C@H](O)[C@H]2O)c(-c2ccc(O)c(O)c2)oc2cc(O)cc(O)c12 [ONC0002825] | 91.4
3 | Nc1nc(Cl)nc2c1ncn2[C@@H]1O[C@H](CO)[C@@H](O)[C@H]1O [ONC0002576, 2chloroadenosine] | 91.53
4 | O=c1[nH]c2ccccc2n1CCCN1CCN(C(c2ccccc2)c2ccccc2)CC1 [ONC0003510, oxatomide] | 63.66
5 | CC(C)[N+](C)(CCC(C(N)=O)(c1ccccc1)c1ccccc1)C(C)C [ONC0000564, isopropamide iodide] | 79.28
6 | Nc1nc2ncc(CNc3ccc(C(=O)N[C@@H](CCC(=O)O)C(=O)O)cc3)nc2c(=O)[nH]1 [ONC0000639, folic acid] | 99.2
7 | CC(C)[C@H](CO)Nc1nc(Nc2ccc(C(=O)O)c(Cl)c2)c2ncn(C(C)C)c2n1 [ONC0001466, purvalanolb] | 58.63
8 | COc1cc(COc2cc(N)c(Cl)cc2C(=O)CCC2CCN(CCNS(C)(=O)=O)CC2)cc(OC)c1 [ONC0001907, rs39604] | 85.64
9 | Cc1n[nH]c2ccc(-c3cncc(OC[C@@H](N)Cc4ccccc4)c3)cc12 [ONC0005067, a674563] | 73.24
10 | COc1ccc2nc([S@@+]([O-])Cc3ncc(C)c(OC)c3C)[nH]c2c1 [ONC0004845, nexium esomeprazole magnesium] | 116.2
11 | Cc1cc(C)c(S(=O)(=O)Nc2ccccc2C(F)(F)F)c(C)c1 [ONC0000959, o3m3fbs] | 72.31
12 | Cc1c(-c2cnccn2)ssc1=S [ONC0004101, oltipraz] | 111.4
13 | N#Cc1cnc2cnc(NCc3cccnc3)cc2c1Nc1ccc(F)c(Cl)c1 [ONC0001337, tcs7006] | 78.74
14 | Cn1cc(CCn2cnc(-c3cnn(C)c3)c2-c2ccc(C#N)cc2)cn1 [ONC0003022, baz2icr] | 78.44
15 | Cn1cnc([N+](=O)[O-])c1Sc1ncnc2nc[nH]c12 [ONC0003177, azathioprine] | 69.21
16 | CCn1c2ccccc2c2cc(CNCc3ccccc3OC)ccc21 [ONC0001052, hlcl61 hydrochloride] | 87.19
17 | CC(C)OC(=O)OCOP(=O)(CO[C@H](C)Cn1cnc2c(N)ncnc21)OCOC(=O)OC(C)C [ONC0004663, tenofovir disoproxil fumarate] | 98.91
18 | C=CC(=O)N1CCCC(n2c(=O)n(-c3ccc(Oc4ccccc4)cc3)c3c(N)ncnc32)C1 (stereo not shown) [ONC0004392, ono4059] | 98.71
19 | C[N+](C)(C)CC(=O)O [ONC0000528, betaine hydrochloride] | 65.55
20 | O=C(O)c1ccccc1C(=O)Nc1ccc(S(=O)(=O)Nc2nccs2)cc1 [ONC0000650, phthalylsulfathiazole] | 115.2
21 | O=c1[nH]c2ccccc2n1CCCN1CCC(n2c(=O)[nH]c3cc(Cl)ccc32)CC1 [ONC0003886, domperidone] | 64.34

Copied from above, compounds 13 to 17
Row | SMILES | % viability [%]
13 | N#Cc1cnc2cnc(NCc3cccnc3)cc2c1Nc1ccc(F)c(Cl)c1 [ONC0001337, tcs7006] | 78.74
14 | Cn1cc(CCn2cnc(-c3cnn(C)c3)c2-c2ccc(C#N)cc2)cn1 [ONC0003022, baz2icr] | 78.44
15 | Cn1cnc([N+](=O)[O-])c1Sc1ncnc2nc[nH]c12 [ONC0003177, azathioprine] | 69.21
16 | CCn1c2ccccc2c2cc(CNCc3ccccc3OC)ccc21 [ONC0001052, hlcl61 hydrochloride] | 87.19
17 | CC(C)OC(=O)OCOP(=O)(CO[C@H](C)Cn1cnc2c(N)ncnc21)OCOC(=O)OC(C)C [ONC0004663, tenofovir disoproxil fumarate] | 98.91

Further records:

Row | SMILES | % viability [%]
22 | CN(c1nccc(=O)[nH]1)C1CCN(c2nc3ccccc3n2Cc2ccc(F)cc2)CC1 [ONC0004622, mizolastine mizollen] | 58.02
23 | OCCN(CCO)c1nc(N2CCCCC2)c2nc(N(CCO)CCO)nc(N3CCCCC3)c2n1 [ONC0000691, dipyridamole] | 121.2
24 | Cc1ccc(NC(=O)c2cccc(C(C)(C)C#N)c2)cc1Nc1ccc2ncn(C)c(=O)c2c1 [ONC0000069, az628] | 82.55
25 | CCc1nc(C)ccc1O [ONC0003743, emoxipin] | 128.3
26 | CC[C@H](CO)Nc1nc(NCc2ccccc2)c2ncn(C(C)C)c2n1 [ONC0004717, roscovitine seliciclib cyc202] | 138.2
27 | NC(=O)c1nnn(Cc2cc(Cl)c(C(=O)c3ccc(Cl)cc3)c(Cl)c2)c1N [ONC0005496, carboxyamidotriazole] | 98.65
28 | CN1CC[C@@H]2CN3CCc4cccc(c43)[C@@H]2C1 [ONC0002584, sdzser082] | 50.18
29 | COC(=O)[C@@H]1CC2=CC(=O)CC[C@]2(C)[C@@]23O[C@@H]2C[C@@]2(C)[C@@H](CC[C@@]24CCC(=O)O4)[C@H]13 [ONC0001296, eplerenone] | 126.2
30 | CC(C)OC(=O)C1=CN(C(=O)c2ccc(F)c(F)c2)CC(C)(C)c2c1[nH]c1ccccc21 [turofexorate isopropyl xl335] | 92.43
31 | CN1CCN(C(c2ccccc2)c2ccccc2)CC1 [ONC0000283, cyclizine] | 71.97
32 | O=C(/C=C\n1cnc(-c2cc(C(F)(F)F)cc(C(F)(F)F)c2)n1)N1CC(F)(F)C1 [ONC0004404, kpt276] | 112.1
33 | CN(CC(=O)O)C(=N)N [ONC0003801, creatine] | 63.3
34 | O=C(O)Cc1ccc(CCNS(=O)(=O)c2ccc(Cl)cc2)cc1 [ONC0002194, daltroban] | 74.66
35 | C[C@]12CC[C@@H]3c4ccc(OC(=O)c5ccccc5)cc4CC[C@H]3[C@@H]1CC[C@@H]2O [ONC0000655, estradiol benzoate] | 107.6
36 | Cc1ccc(F)c(NC(=O)Nc2ccc(-c3cccc4[nH]nc(N)c34)cc2)c1 [ONC0004684, linifanib abt869] | 93.84
37 | O=c1onc2cnc3ccccc3n12 [ONC0002647, odq] | 62.96
38 | O=C(CCCN1CCN(c2ccccn2)CC1)c1ccc(F)cc1 [ONC0003996, azaperone] | 81.42
39 | O=C(Nc1ccncc1)c1cc([N+](=O)[O-])ccc1Cl [ONC0003673, t0070907] | 54.04
40 | C#C[C@]1(O)CC[C@H]2[C@@H]3CCC4=CCCC[C@@H]4[C@H]3CC[C@@]21C [ONC0005352, lynestrenol] | 86.96
41 | C[C@@H](O)[C@@H]1NC(=O)[C@H](CCCCN)NC(=O)[C@@H](Cc2c[nH]c3ccccc23)NC(=O)[C@H](Cc2ccccc2)NC(=O)[C@@H](NC(=O)[C@H](N)Cc2ccccc2)CSSC[C@@H](C(=O)N[C@H](CO)[C@@H](C)O)NC1=O [ONC0002167, octreotide acetate] | 72.01
42 | N[C@@H](Cc1ccc(B(O)O)cc1)C(=O)O [ONC0005503, boronophenylalanine] | 97.13

Row | SMILES | % viability [%]
43 | O=S(=O)(N[C@H]1CC[C@@](c2cc(F)ccc2F)(S(=O)(=O)c2ccc(Cl)cc2)CC1)C(F)(F)F [ONC0001737, mrk560] | 116.9
44 | C[C@]12CCC3C(CC[C@]4(O)C[C@@H](O)CC[C@]34C=O)[C@@]1(O)CCC2C1=CC(=O)OC1 (stereo partly shown) [ONC0003512, strophantidin] | 60.95
45 | CNCCCC1(c2ccccc2)OC(C)(C)c2ccccc21 (stereo not shown) [ONC0000880, talopram] | 94.2
46 | C[C@H](CCC(=O)O)[C@H]1CC[C@H]2[C@@H]3[C@@H](O)C[C@@H]4C[C@H](O)CC[C@]4(C)[C@H]3CC[C@]12C [ONC0003173, ursodiol] | 114.2
47 | NC1CCC(N[C@@H]2C[C@H]2c2ccccc2)CC1 (stereo partly shown) [ONC0004699, ory1001 rg6016 2hcl] | 133.1
48 | C[C@@H](CN1CCC(Cc2ccccc2)CC1)[C@@H](O)c1ccc(O)cc1 [ONC0001553, ro256981] | 116.8
49 | N#Cc1cc2nc(O)c(O)nc2cc1[N+](=O)[O-] [ONC0000818, cnqx] | 71.7
50 | COC(=O)C1=C(C#N)NC(C)=C(C(=O)OC(C)C)C1c1cccc([N+](=O)[O-])c1 (stereo not shown) [nilvadipine arc029] | 85.22
51 | COC(=O)[C@H](NC(=O)c1cc(-c2ccccc2)nc2ccccc12)c1ccccc1 [ONC0001501, sb218795] | 80.75
52 | COc1oc(=O)c2cc(N)ccc2c1Cl [ONC0001285, jlk6] | 102.3
53 | C#C[C@]1(O)CCC2C3CCC4=C(CCC(=O)C4)C3CC[C@@]21C (stereo partly shown) [ONC0000393, norethynodrel] | 78.62
54 | N[C@@H](CS(=O)O)C(=O)O [ONC0001597, lcysteinesulfinicacid] | 62.57
55 | COCCCN1CCC(NC(=O)c2cc(Cl)c(N)c3c2OCC3)CC1 [ONC0004542, prucalopride] | 76.49
56 | Nc1nc(-c2ccc(Cl)c(Cl)c2)c(-c2ccncc2)s1 [ONC0001363, cgh2466] | 81.4
57 | CCN1CCN(Cc2ccc(C(=O)Nc3ccc(C)c(Oc4ccc5c(c4)CC(=O)N5)c3)cc2C(F)(F)F)CC1 [ONC0000098, ddr1in1] | 107.7
58 | COC[C@H](C)Oc1cc(O[C@@H](C)Cc2ccccc2)cc(C(=O)Nc2ccc(C(=O)O)cn2)c1 [ONC0001360, gka50] | 117.7
59 | N[C@@H](Cc1cc(I)c(Oc2ccc(O)c(I)c2)c(I)c1)C(=O)O [ONC0004152, liothyronine l isomer sodium] | 70.68
60 | CCC(=O)NC1Cc2ccccc2C(c2ccccc2)C1 (stereo not shown) [ONC0001473, 4ppdot] | 63.49
61 | O=C(Oc1cc(S(=O)(=O)c2ccccc2)ccc1[N+](=O)[O-])c1ccc(Cl)cc1 [ONC0005146, btb06584] | 71.25

— article PMC12670160, “A drug-repurposing screen of FDA- and EMA-approved drugs identifies two NF-κB inhibitors active against eumycetoma” (Journal of Antimicrobial Chemotherapy, 2025)
